Source: paper PMC9573979
No constants are given. Whether binding was seen depends on the method and setting. Binding seen in cells or lysates may run through a third protein. Some entries that bind do so weakly or less than the wild type.

Amino acid sequences for entries named in this document (tags omitted).
UniProt Q6PDG5: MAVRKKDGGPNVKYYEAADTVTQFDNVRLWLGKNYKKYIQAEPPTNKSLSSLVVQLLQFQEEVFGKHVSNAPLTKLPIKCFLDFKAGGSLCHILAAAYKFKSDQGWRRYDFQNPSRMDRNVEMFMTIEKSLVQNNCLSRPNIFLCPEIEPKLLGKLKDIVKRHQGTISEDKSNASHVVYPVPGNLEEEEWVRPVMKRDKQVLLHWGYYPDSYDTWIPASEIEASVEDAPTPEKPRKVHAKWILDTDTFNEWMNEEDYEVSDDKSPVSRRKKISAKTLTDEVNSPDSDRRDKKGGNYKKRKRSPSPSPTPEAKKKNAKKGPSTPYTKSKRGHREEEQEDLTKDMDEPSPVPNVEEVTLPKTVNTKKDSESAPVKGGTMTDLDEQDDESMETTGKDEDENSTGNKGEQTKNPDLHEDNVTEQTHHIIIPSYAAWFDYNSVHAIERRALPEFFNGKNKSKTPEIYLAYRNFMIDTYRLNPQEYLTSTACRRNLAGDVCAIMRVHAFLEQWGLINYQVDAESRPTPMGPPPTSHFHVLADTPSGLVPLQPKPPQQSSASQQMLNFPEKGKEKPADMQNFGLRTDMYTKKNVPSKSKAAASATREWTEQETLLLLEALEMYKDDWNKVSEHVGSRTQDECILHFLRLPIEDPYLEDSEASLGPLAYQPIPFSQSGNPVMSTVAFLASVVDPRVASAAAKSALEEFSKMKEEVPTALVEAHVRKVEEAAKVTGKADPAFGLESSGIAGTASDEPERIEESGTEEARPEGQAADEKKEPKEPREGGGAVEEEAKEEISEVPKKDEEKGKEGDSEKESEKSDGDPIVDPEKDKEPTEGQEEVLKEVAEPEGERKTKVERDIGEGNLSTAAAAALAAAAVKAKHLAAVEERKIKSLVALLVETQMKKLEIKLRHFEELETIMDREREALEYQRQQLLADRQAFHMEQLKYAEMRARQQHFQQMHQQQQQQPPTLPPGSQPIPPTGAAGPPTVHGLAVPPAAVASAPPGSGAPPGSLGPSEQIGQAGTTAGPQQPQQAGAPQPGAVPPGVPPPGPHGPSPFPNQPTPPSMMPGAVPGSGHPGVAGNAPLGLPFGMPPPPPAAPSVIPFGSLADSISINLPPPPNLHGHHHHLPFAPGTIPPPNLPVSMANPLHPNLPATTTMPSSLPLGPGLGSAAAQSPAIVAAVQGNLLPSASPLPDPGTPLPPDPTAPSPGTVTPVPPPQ
UniProt P97496: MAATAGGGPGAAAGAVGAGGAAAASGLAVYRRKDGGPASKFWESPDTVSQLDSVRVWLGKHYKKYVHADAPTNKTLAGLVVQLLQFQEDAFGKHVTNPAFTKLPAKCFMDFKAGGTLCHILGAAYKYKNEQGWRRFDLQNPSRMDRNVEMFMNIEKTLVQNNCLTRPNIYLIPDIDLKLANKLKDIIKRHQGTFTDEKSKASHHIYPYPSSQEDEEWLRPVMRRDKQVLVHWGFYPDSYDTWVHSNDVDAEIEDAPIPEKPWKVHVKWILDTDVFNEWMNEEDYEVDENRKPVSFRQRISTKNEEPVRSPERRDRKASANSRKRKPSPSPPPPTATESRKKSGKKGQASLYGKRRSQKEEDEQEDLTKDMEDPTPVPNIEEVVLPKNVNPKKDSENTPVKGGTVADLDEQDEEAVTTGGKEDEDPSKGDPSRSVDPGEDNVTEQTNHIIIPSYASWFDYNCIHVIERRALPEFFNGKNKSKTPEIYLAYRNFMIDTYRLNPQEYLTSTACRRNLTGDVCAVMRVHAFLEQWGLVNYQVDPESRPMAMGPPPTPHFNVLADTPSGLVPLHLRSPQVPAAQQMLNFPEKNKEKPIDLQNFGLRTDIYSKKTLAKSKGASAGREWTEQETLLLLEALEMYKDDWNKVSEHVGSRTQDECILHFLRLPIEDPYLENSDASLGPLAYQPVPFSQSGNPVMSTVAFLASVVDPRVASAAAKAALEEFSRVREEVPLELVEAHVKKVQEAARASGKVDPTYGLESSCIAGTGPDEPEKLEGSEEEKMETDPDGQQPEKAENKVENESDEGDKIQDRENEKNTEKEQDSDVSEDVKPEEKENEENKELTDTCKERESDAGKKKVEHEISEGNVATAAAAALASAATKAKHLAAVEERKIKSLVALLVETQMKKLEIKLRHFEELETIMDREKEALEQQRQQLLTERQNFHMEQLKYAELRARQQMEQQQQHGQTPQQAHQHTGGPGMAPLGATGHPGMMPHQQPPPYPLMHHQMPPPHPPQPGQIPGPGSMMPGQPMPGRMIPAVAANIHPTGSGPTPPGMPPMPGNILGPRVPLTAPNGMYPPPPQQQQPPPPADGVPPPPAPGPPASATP

Legend:
[1] = biological target: BAF170 (mouse (endogenous in telencephalic tissue)) (UniProt Q6PDG5); assay: co-IP; coIP/western blot of E12.5 dorsal telencephalic tissue
[2] = biological target: BAF155 (mouse (endogenous in telencephalic tissue)) (UniProt P97496); assay: as above

binding [1]: binds | binding [2]: binds
B1: LHX2 (protein, UniProt Q9Z0S2 1-406)
chain: MLFHSLSGPEVHGVIDEMDRRAKSEAPAISSAIDRGDTETTMPSISSDRAALCAGCGGKISDRYYLLAVDKQWHMRCLKCCECKLNLESELTCFSKDGSIYCKEDYYRRFSVQRCARCHLGISASEMVMRARDLVYHLNCFTCTTCNKMLTTGDHFGMKDSLVYCRLHFEALLQGEYPAHFNHADVAAAAAAAAAAKSAGLGSAGANPLGLPYYNGVGTVQKGRPRKRKSPGPGADLAAYNAALSCNENDAEHLDRDQPYPSSQKTKRMRTSFKHHQLRTMKSYFAINHNPDAKDLKQLAQKTGLTKRVLQVWFQNARAKFRRNLLRQENTGVDKTSDATLQTGTPSGPASELSNASLSPSSTPTTLTDLTSPTLPTVTSVLTSVPGNLEGHEPHSPSQTTLTNLF
